# Where “and” joins values, the source holds several entries; their conditions need not be identical. Identical values can stand only once. Like-named read-outs stand apart in the source and are kept apart here. The source gives many values for each of these; only a part stands here. Where a SMILES comes first, the peptide text is derived from it.
# Biological target: T1, PLpro-WT (Severe acute respiratory syndrome coronavirus 2, UniProt P0DTD1)
# T1 construct: PLpro is a domain of Nsp3—a large multidomain protein; made in house; host or cells: E. coli BL21(DE3)-Gold
# Assay type: biochemical
smiles,measurement,setting,value
CC(=O)N[C@@H](CC(C)C)C(=O)N[C@@H](CCCCN)C(=O)NCC(=O)NCC(=O)Nc1ccc2c(C)cc(=O)oc2c1 [probe] (HELM PEPTIDE1{[ac].L.K.G.G.[Cc1cc(=O)oc2cc(N[*:1])ccc12]}$$$$V2.0),fluorescence,"0.5 M PLP, time point 31",2240 and 2250 and 2181
same,fluorescence normalised to probe only,"0.5 M PLP, time point 31",46.6667 and 46.875 and 45.4375
same,fluorescence,"0.5 M PLP, time point 32",2269 and 2293 and 2227
same,fluorescence normalised to probe only,"0.5 M PLP, time point 32",47.2708 and 47.7708 and 46.3958
same,fluorescence,"0.5 M PLP, time point 33",2306 and 2327 and 2258
same,fluorescence normalised to probe only,"0.5 M PLP, time point 33",48.0417 and 48.4792 and 47.0417
same,fluorescence,"0.5 M PLP, time point 34",2335 and 2369 and 2300
same,fluorescence normalised to probe only,"0.5 M PLP, time point 34",48.6458 and 49.3542 and 47.9167
same,fluorescence,"0.5 M PLP, time point 35",2376 and 2398 and 2340
same,fluorescence normalised to probe only,"0.5 M PLP, time point 35",49.5 and 49.9583 and 48.75
same,fluorescence,"0.5 M PLP, time point 36",2406 and 2431 and 2373
same,fluorescence normalised to probe only,"0.5 M PLP, time point 36",50.125 and 50.6458 and 49.4375
same,fluorescence,"0.5 M PLP, time point 37",2445 and 2469 and 2392
same,fluorescence normalised to probe only,"0.5 M PLP, time point 37",50.9375 and 51.4375 and 49.8333
same,fluorescence,"0.5 M PLP, time point 38",2476 and 2500 and 2430
same,fluorescence normalised to probe only,"0.5 M PLP, time point 38",51.5833 and 52.0833 and 50.625
same,fluorescence,"1.0 M PLP, time point 1",405 and 400 and 401
same,fluorescence normalised to probe only,"1.0 M PLP, time point 1",8.4375 and 8.333 and 8.354
same,fluorescence,"1.0 M PLP, time point 2",657 and 642 and 650
same,fluorescence normalised to probe only,"1.0 M PLP, time point 2",13.6875 and 13.375 and 13.5417
same,fluorescence,"1.0 M PLP, time point 3",894 and 867 and 877
same,fluorescence normalised to probe only,"1.0 M PLP, time point 3",18.625 and 18.0625 and 18.2708
same,fluorescence,"1.0 M PLP, time point 4",1104 and 1076 and 1091
same,fluorescence normalised to probe only,"1.0 M PLP, time point 4",23 and 22.4167 and 22.7292
same,fluorescence,"1.0 M PLP, time point 5",1302 and 1264 and 1282
same,fluorescence normalised to probe only,"1.0 M PLP, time point 5",27.125 and 26.3333 and 26.7083
same,fluorescence,"1.0 M PLP, time point 6",1481 and 1448 and 1469
same,fluorescence normalised to probe only,"1.0 M PLP, time point 6",30.8542 and 30.1667 and 30.6042
same,fluorescence,"1.0 M PLP, time point 7",1657 and 1611 and 1632
same,fluorescence normalised to probe only,"1.0 M PLP, time point 7",34.5208 and 33.5625 and 34
same,fluorescence normalised to probe only,"1.0 M PLP, time point 14",53.0833 and 51.2292 and 52.3333
same,fluorescence,"1.0 M PLP, time point 15",2660 and 2552 and 2616
same,fluorescence normalised to probe only,"1.0 M PLP, time point 15",55.4167 and 53.1667 and 54.5
same,fluorescence,"1.0 M PLP, time point 16",2739 and 2646 and 2710
same,fluorescence normalised to probe only,"1.0 M PLP, time point 16",57.0625 and 55.125 and 56.4583
same,fluorescence,"1.0 M PLP, time point 17",2817 and 2719 and 2786
same,fluorescence normalised to probe only,"1.0 M PLP, time point 17",58.6875 and 56.6458 and 58.0417
same,fluorescence,"1.0 M PLP, time point 18",2883 and 2799 and 2867
same,fluorescence normalised to probe only,"1.0 M PLP, time point 18",60.0625 and 58.3125 and 59.7292
same,fluorescence,"1.0 M PLP, time point 19",2968 and 2847 and 2926
same,fluorescence normalised to probe only,"1.0 M PLP, time point 19",61.8333 and 59.3125 and 60.9583
same,fluorescence,"1.0 M PLP, time point 20",3033 and 2931 and 3008
same,fluorescence normalised to probe only,"1.0 M PLP, time point 20",63.1875 and 61.0625 and 62.6667
same,fluorescence,"1.0 M PLP, time point 21",3089 and 2981 and 3065
same,fluorescence normalised to probe only,"1.0 M PLP, time point 21",64.3542 and 62.1042 and 63.8542
same,fluorescence,"1.0 M PLP, time point 22",3143 and 3037 and 3116
same,fluorescence normalised to probe only,"1.0 M PLP, time point 22",65.4792 and 63.2708 and 64.9167
same,fluorescence,"1.0 M PLP, time point 23",3195 and 3091 and 3165
same,fluorescence normalised to probe only,"1.0 M PLP, time point 23",66.5625 and 64.3958 and 65.9375
same,fluorescence,"1.0 M PLP, time point 24",3255 and 3150 and 3225
same,fluorescence normalised to probe only,"1.0 M PLP, time point 24",67.8125 and 65.625 and 67.1875
same,fluorescence,"1.0 M PLP, time point 25",3302 and 3185 and 3264
same,fluorescence normalised to probe only,"1.0 M PLP, time point 25",68.7917 and 66.3542 and 68
same,fluorescence,"1.0 M PLP, time point 26",3343 and 3213 and 3303
same,fluorescence normalised to probe only,"1.0 M PLP, time point 26",69.6458 and 66.9375 and 68.8125
same,fluorescence,"1.0 M PLP, time point 27",3374 and 3260 and 3349
same,fluorescence normalised to probe only,"1.0 M PLP, time point 27",70.2917 and 67.9167 and 69.7708
same,fluorescence,"1.0 M PLP, time point 28",3413 and 3284 and 3392
same,fluorescence normalised to probe only,"1.0 M PLP, time point 28",71.1042 and 68.4167 and 70.6667
same,fluorescence,"1.0 M PLP, time point 29",3459 and 3331 and 3423
same,fluorescence normalised to probe only,"1.0 M PLP, time point 29",72.0625 and 69.3958 and 71.3125
same,fluorescence,"1.0 M PLP, time point 30",3486 and 3350 and 3457
same,fluorescence normalised to probe only,"1.0 M PLP, time point 30",72.625 and 69.7917 and 72.0208
same,fluorescence,"1.0 M PLP, time point 31",3502 and 3381 and 3482
same,fluorescence normalised to probe only,"1.0 M PLP, time point 31",72.9583 and 70.4375 and 72.5417
same,fluorescence,"1.0 M PLP, time point 32",3532 and 3408 and 3501
same,fluorescence normalised to probe only,"1.0 M PLP, time point 32",73.5833 and 71 and 72.9375
same,fluorescence,"1.0 M PLP, time point 33",3565 and 3438 and 3531
same,fluorescence normalised to probe only,"1.0 M PLP, time point 33",74.2708 and 71.625 and 73.5625
same,fluorescence,"1.0 M PLP, time point 34",3583 and 3448 and 3552
same,fluorescence normalised to probe only,"1.0 M PLP, time point 34",74.6458 and 71.8333 and 74
same,fluorescence,"1.0 M PLP, time point 35",3605 and 3490 and 3574
same,fluorescence normalised to probe only,"1.0 M PLP, time point 35",75.1042 and 72.7083 and 74.4583
same,fluorescence,"1.0 M PLP, time point 36",3621 and 3506 and 3602
same,fluorescence normalised to probe only,"1.0 M PLP, time point 36",75.4375 and 73.0417 and 75.0417
same,fluorescence,"1.0 M PLP, time point 37",3636 and 3512 and 3605
same,fluorescence normalised to probe only,"1.0 M PLP, time point 37",75.75 and 73.1667 and 75.1042
same,fluorescence,"1.0 M PLP, time point 38",3654 and 3531 and 3628
same,fluorescence normalised to probe only,"1.0 M PLP, time point 38",76.125 and 73.5625 and 75.5833
